Residue numbers refer to the chain shown, from its start. For at least one entry, the source does not settle the construct or the ends of the probe. For some of these results: No signal at the amounts used counts as a negative. For some of these results: Tags and fusion partners may be left off the protein sequences shown. For some of these results: The comparison behind a weaker result is the experiment's own reference, which may not be listed here.
Assays:
Assay in all cases: SPR
[1] = biological target: T1, ParB (Caulobacter crescentus) (UniProt B8GW30); conditions: SPR (ReDCaT, Biacore T200), HBS-EP+: 10 mM HEPES pH 7.4, 150 mM NaCl, 3 mM EDTA, 0.005% Surfactant P20, 25 C, ParB given as dimer, recombinant protein, protein details: C-terminal His6, label: biotin via captured ReDCaT linker
T1 sequence (looked up, limits assumed): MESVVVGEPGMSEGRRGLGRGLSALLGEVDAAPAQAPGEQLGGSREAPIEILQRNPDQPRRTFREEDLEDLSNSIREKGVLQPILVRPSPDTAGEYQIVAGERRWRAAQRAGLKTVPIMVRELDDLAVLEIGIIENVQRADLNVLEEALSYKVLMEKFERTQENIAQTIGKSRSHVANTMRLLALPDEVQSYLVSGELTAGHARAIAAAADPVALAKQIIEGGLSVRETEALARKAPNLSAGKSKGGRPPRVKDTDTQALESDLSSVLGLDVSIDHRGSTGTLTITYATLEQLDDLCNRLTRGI

Protein sequences, listed by entry. Tags and fused reporters are not part of them. Lines headed by an entry give the natural chain unless they say otherwise; changes in a name come on top.
UniProt P26497: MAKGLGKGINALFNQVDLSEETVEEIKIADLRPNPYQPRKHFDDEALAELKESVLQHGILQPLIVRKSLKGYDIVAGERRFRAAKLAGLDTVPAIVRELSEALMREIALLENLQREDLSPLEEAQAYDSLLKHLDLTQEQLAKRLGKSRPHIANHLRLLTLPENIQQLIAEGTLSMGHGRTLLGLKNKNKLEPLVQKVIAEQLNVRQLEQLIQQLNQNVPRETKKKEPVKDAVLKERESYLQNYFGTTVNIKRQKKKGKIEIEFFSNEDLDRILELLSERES

[2] = biological target: Spo0J (ParB) (Bacillus subtilis) (UniProt P26497); conditions: apparent Kd; SPR (ReDCaT, Biacore T200), HBS-EP+: 10 mM HEPES pH 7.4, 150 mM NaCl, 3 mM EDTA, 0.005% Surfactant P20, 25 C; ParB given as dimer; recombinant protein; label: biotin via captured ReDCaT linker
[3] = biological target: T2, ParB (R104A) (Caulobacter crescentus) (UniProt B8GW30); conditions: 200 nM protein, binds as well as wild type; SPR (ReDCaT, Biacore T200), HBS-EP+: 10 mM HEPES pH 7.4, 150 mM NaCl, 3 mM EDTA, 0.005% Surfactant P20, 25 C; ParB given as dimer; recombinant protein; protein details: C-terminal His6; label: biotin via captured ReDCaT linker
T2 sequence (looked up, limits assumed): T1 sequence (looked up, limits assumed) with R104A

[4] = biological target: T3, ParB (G101S) (Caulobacter crescentus) (UniProt B8GW30); conditions: 200 nM protein, binds as well as wild type; SPR (ReDCaT, Biacore T200), HBS-EP+: 10 mM HEPES pH 7.4, 150 mM NaCl, 3 mM EDTA, 0.005% Surfactant P20, 25 C; ParB given as dimer; recombinant protein; protein details: C-terminal His6; label: biotin via captured ReDCaT linker
T3 sequence (looked up, limits assumed): T1 sequence (looked up, limits assumed) with G101S

Q: Does “ATGCCAAGCCCCGTGGAACAGTTG / CAACTGTTCCACGGGGCTTGGCATCCTACCCTACGTCCTCCTGC [parS site 1]” bind ([1]; Kd not determined)?
A: binds more weakly

Q: Which Kd [2] does the source give for “CAATAATAGACCGTAGTGAGAACA / TGTTCTCACTACGGTCTATTATTGCCTACCCTACGTCCTCCTGC [B. subtilis scrambled parS]” here?
A: 0.183 µM

Q: Does “CCCGCCGCCCCCGTGAAACGTCCG / CGGACGTTTCACGGGGGCGGCGGGCCTACCCTACGTCCTCCTGC [parS site 6]” bind ([1]; Kd not determined)?
A: binds more weakly

Q: Does “GGCTACACGACGTCTCGCTCACTA / TAGTGAGCGAGACGTCGTGTAGCCCCTACCCTACGTCCTCCTGC [scrambled parS (Scramble3)]” bind ([1]; almost no or very weak binding)?
A: no binding

Q: Which results are given for “GGGATGTTCCACGTGAAACATCAC / GTGATGTTTCACGTGGAACATCCCCCTACCCTACGTCCTCCTGC [parS site 4]”?
A: Kd [1]: 0.03 µM; binding result [3]: binds; binding result [4]: binds

From publication PMC5815017
